PubChem BioAssay AID1224826 | NIAID – 2016

Aim: 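Regulators of Tlr4 signalling leading to Tnf-alpha expression in macrophages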 (primary screen)
Cells: RAW264.7 G9 macrophages from mouse bearing reporters for p65 (GFP) and the Tnf promoter (mCherry)
Reagent: siRNA pool against mouse genes, 100 nM
Timing: 16 h of LPS stimulation, after 2 days of siRNA transfection
Conditions: bacterial lipopolysaccharide (Salmonella minnesota R595), 10 ng/ml
Read-out: 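Imaged Tnf reporter mCherry in nuclei, minus background, normalised per plate to the median and expressed as robust z-scores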
Scale: Tnf reporter robust z-score: higher = stronger Tnf promoter reporter signal after LPS
Hit rule: 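Called active when robust z-score is at most -1.3, matching the median of the Tlr4 knock-down control, or over 3; control wells and wells with under 50 cells never active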
Calls: active = Tnf reporter clearly lowered or raised; inactive = no clear change in Tnf reporter
In all, the deposit lists about 17,000 reagents; this is an unselected part. Over the whole deposit, about 1,110 (6.6%) were called active. 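Active means lowered or raised reporter signal; replicate intensities are raw and not normalised per plate.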 Further read-outs or replicates are left out here.

gene symbol,Tnf reporter robust z-score,fewer than 50 cells in well,Outcome
Pth2r,0.43,enough cells in well,inactive
Them6,,fewer than 50 cells per well; well left out of calls,inactive
Kazn,2.07,enough cells in well,inactive
Npas4,0.94,enough cells in well,inactive
Cimap1c,1.21,enough cells in well,inactive
Apoa5,1.43,enough cells in well,inactive
Apeh,,fewer than 50 cells per well; well left out of calls,inactive
Wdr27,-0.96,enough cells in well,inactive
Fam167b,-1.09,enough cells in well,inactive
Cstad,-0.03,enough cells in well,inactive
Nhp2,,fewer than 50 cells per well; well left out of calls,inactive
Fbxw2,-0.87,enough cells in well,inactive
D1Pas1,-1.36,enough cells in well,active
Cdh22,2.5,enough cells in well,inactive
Or8b53,3.04,enough cells in well,active
Clnk,1.63,enough cells in well,inactive
Or5p73,,fewer than 50 cells per well; well left out of calls,inactive
Or4c106,-0.18,enough cells in well,inactive
Or52a24,-1.1,enough cells in well,inactive
Zbtb11os1,,fewer than 50 cells per well; well left out of calls,inactive
Mpp4,-0.09,enough cells in well,inactive
Slc24a2,1.25,enough cells in well,inactive
Impa2,0.71,enough cells in well,inactive
Apob,0.68,enough cells in well,inactive
Tars2,-0.43,enough cells in well,inactive
Faf1,1.16,enough cells in well,inactive
Shisa5,0.93,enough cells in well,inactive
Cdk10,0.19,enough cells in well,inactive
Rtel1,-1.17,enough cells in well,inactive
Slc26a3,0.21,enough cells in well,inactive
Nckap1l,1.71,enough cells in well,inactive
Pnpla3,-0.51,enough cells in well,inactive
Commd1,-0.82,enough cells in well,inactive
Timm10,,fewer than 50 cells per well; well left out of calls,inactive
Cwc25,-0.88,enough cells in well,inactive
Matn1,0.77,enough cells in well,inactive
Cpne9,0.78,enough cells in well,inactive
Tent2,,fewer than 50 cells per well; well left out of calls,inactive
H2ac25,-1.7,enough cells in well,active
Rabl2,-0.1,enough cells in well,inactive
Stkld1,-0.43,enough cells in well,inactive
Zfp945,-0.89,enough cells in well,inactive
Slc66a3,0.89,enough cells in well,inactive
Proser1,1.74,enough cells in well,inactive
Tm4sf5,,fewer than 50 cells per well; well left out of calls,inactive
Erich2,,fewer than 50 cells per well; well left out of calls,inactive
1110059G10Rik,-0.05,enough cells in well,inactive
Nat8,-1.17,enough cells in well,inactive
Gin1,0.69,enough cells in well,inactive
Trim56,-0.3,enough cells in well,inactive
Klhl26,,fewer than 50 cells per well; well left out of calls,inactive
Lysmd2,,fewer than 50 cells per well; well left out of calls,inactive
Trem1,0.17,enough cells in well,inactive
Matk,0.22,enough cells in well,inactive
Ccl17,-0.1,enough cells in well,inactive
Ogn,1.57,enough cells in well,inactive
Ublcp1,0.81,enough cells in well,inactive
Slc5a8,-1.11,enough cells in well,inactive
Adam7,0.12,enough cells in well,inactive
Mki67,1.16,enough cells in well,inactive
Tbc1d22a,-0.33,enough cells in well,inactive
Gprc5b,0.35,enough cells in well,inactive
Cd46,0.36,enough cells in well,inactive
Mcpt8,1.44,enough cells in well,inactive
Pkd2l2,0.16,enough cells in well,inactive
Tead1,-0.14,enough cells in well,inactive
Tbk1,0.35,enough cells in well,inactive
Fig4,0.55,enough cells in well,inactive
Cd82,-0.28,enough cells in well,inactive
Hip1,-0.6,enough cells in well,inactive
Doc2a,0.67,enough cells in well,inactive
Tmem198b,2.35,enough cells in well,inactive
Cys1,-0.05,enough cells in well,inactive
Ehbp1,-0.49,enough cells in well,inactive
Or9s18,1.77,enough cells in well,inactive

An excerpt from above, reduced to “fewer than 50 cells in well”:
Mki67: enough cells in well
Tbc1d22a: enough cells in well
Gprc5b: enough cells in well
Cd46: enough cells in well
Mcpt8: enough cells in well
Pkd2l2: enough cells in well
Tead1: enough cells in well
